Assay results taken from PubChem BioAssay AID504834 (National Center for Advancing Translational Sciences (NCATS), 2011).
The campaign covered roughly 320,000 compounds. About 22,000 (6.9%) were called active. The shares of active, inactive and inconclusive entries below differ from those in the screen. The call rests on the fitted dose curve; in most records, active means well fitted inhibition curve with a large enough effect; inconclusive means small, poorly fitted or top-dose-only effect, or another doubt; inactive means no such curve, though single readings can be large or run the other way. Potencies beside an inconclusive call are fits to weak or partial responses and may not hold up.

assay: Primary qHTS for delayed death inhibitors of the malarial parasite plastid, 96 hour incubation; details: P. falciparum luciferase reporter growth; series mostly up to 28.7 µM; activity change, negative = inhibition: at the top concentration
Procedure, shortened: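 Infected RBCs, 2% Hct / 0.05% parasitemia final; luciferase-reporter P. falciparum; cpd 96 h, 37 C, 5% CO2; luciferase detection reagent; luminescence.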
On the % scale 0 is the no-effect control and ±100 the full control effect; potency means the concentration at half of the fitted maximal effect.

| Structure (SMILES) | Potency | activity change, negative = inhibition |
| --- | --- | --- |
| Nc1cc(-c2ccc(Br)cc2)nn1S(=O)(=O)c1cccc2nsnc12 | inconclusive: 11.7 µM [inhibitor, single point] | – |
| COc1ccc2cc(CCNC(=O)C(C)C)c(=O)[nH]c2c1 | – | inactive: 1.92% |
| CCOc1ccc(CCNC(=O)COC(=O)CSc2ccc(C)cc2)cc1OCC | inconclusive: 16.5 µM [inhibitor, partial curve, poor fit] | – |
| COc1cc(NC(=O)C2CC(c3cccc(OC)c3OC)=NO2)cc(OC)c1OC (stereo not given) | – | inactive: -16.7% |
| Cc1ccc(C)c(NC(=S)N(CCN(C)C)C(C)c2ccccn2)c1 (stereo not given) | inconclusive: 18.5 µM [inhibitor, single point] | – |
| Cc1ccccc1CC(=O)N1CCCC(CNC(=O)c2ccc(F)cc2)C1 (stereo not given) | inconclusive: 18.5 µM [inhibitor, single point] | – |
| Nc1nccnc1C(=O)OCC(=O)Nc1cccc(S(=O)(=O)N2CCCCC2)c1 | inconclusive: 3.29 µM [inhibitor, single point] | – |
| CCC(=O)NC(c1cccs1)c1cc([N+](=O)[O-])c2cccnc2c1OC (stereo not given) | – | inactive: 1.77% |
| COc1ccc(CNC(=S)N/N=C(\C)c2ccc(OC)cc2)cc1 | inconclusive: 18.5 µM [inhibitor, single point] | – |
| CC(=O)c1ccc(OCCCC(=O)NC2=NCCS2)cc1 | inconclusive: 0.37 µM [inhibitor, partial curve, poor fit] | – |
| O=C(Cn1cccc1C(=O)c1ccccc1)NCc1cccc(Cl)c1 | active: 13.1 µM | – |
| CC(=O)c1ccc(NC(=O)CSc2nnc(-c3ccncc3)n2C2CC2)cc1 | inconclusive: 13.1 µM [inhibitor, single point] | – |
| COc1cc2c(cc1OC)C(c1cccc(C)c1)CC(=O)N2 (stereo not given) | inconclusive: 5.22 µM [inhibitor, partial curve, poor fit] | – |
| CCOc1cccc(=O)c2c(C)n(CC(=O)c3ccccc3)c(C)c12 | – | inactive: 43.8% |
| Cc1nnc(NC(=O)CSc2nnc(CNC(=O)c3ccc(F)cc3)o2)s1 | – | inactive: 29.2% |
| CCc1cc[n+](C2=C([O-])c3ccccc3C(=O)/C2=N\S(=O)(=O)c2cccs2)cc1 | inconclusive: 1.65 µM [inhibitor, full curve, poor fit] | – |
| Cc1cc(C)c2oc(C(=O)N(Cc3ccccc3)C3CCS(=O)(=O)C3)cc(=O)c2c1 (stereo not given) | inconclusive: 2.33 µM [inhibitor, partial curve] | – |
| Cc1ccc2[nH]c(=O)c(CN(Cc3cccs3)C(=S)NCC3CCCO3)cc2c1 (stereo not given) | inconclusive: 14.7 µM [inhibitor, single point] | – |
| CCc1c(C(=O)NNC(=S)Nc2ccc(S(=O)(=O)Nc3ncccn3)cc2)csc1C | inconclusive: 18.5 µM [inhibitor, single point] | – |
| c1ccc2c(c1)CC1(CCCC1)N=C2N1CCOCC1 | – | inactive: 24.2% |
| N#Cc1cc2c(cc1NC(=O)CCn1cnnn1)OCO2 | inconclusive: 16.5 µM [inhibitor, single point] | – |
| O=C(NNS(=O)(=O)c1ccccc1C(F)(F)F)c1cc2ncc(C(F)(F)F)cc2s1 | – | inactive: -1.47% |
| O=C(Cn1ccc2ccccc2c1=O)NCCC(=O)NC1CCN(Cc2ccccc2)CC1 | inconclusive: 4.65 µM [inhibitor, partial curve, poor fit] | – |

Reprinted at random: two entries already listed, in no set order.

| Structure (SMILES) | Potency | activity change, negative = inhibition |
| --- | --- | --- |
| Nc1cc(-c2ccc(Br)cc2)nn1S(=O)(=O)c1cccc2nsnc12 | inconclusive: 11.7 µM [inhibitor, single point] | – |
| Nc1nccnc1C(=O)OCC(=O)Nc1cccc(S(=O)(=O)N2CCCCC2)c1 | inconclusive: 3.29 µM [inhibitor, single point] | – |

Continued:

| Structure (SMILES) | Potency | activity change, negative = inhibition |
| --- | --- | --- |
| O=C(O)[C@@H](O)[C@@H](O)[C@H](O)[C@H](O)CO | active: 8.49 µM | – |
| Cc1cc(C)c(S(=O)(=O)Nc2cccc(S(=O)(=O)NC3=NCCC3)c2)c(C)c1 | – | inactive: 6.15% |
| CCN(C(=O)C(C)N1C(=O)/C(=C/c2ccco2)SC1=S)C1CCS(=O)(=O)C1 (stereo not given) | inconclusive: 2.94 µM [inhibitor, partial curve, poor fit] | – |
| O=C(O)CSc1nc2ccc(Cl)cc2[nH]1 | inconclusive: 10.4 µM [inhibitor, single point] | – |
| C/C(=N\Nc1nc(C)cc(-c2ccccc2)n1)c1ccc(F)cc1 | – | inactive: -12.7% |
| CCCOC1CCCN(C(=O)c2ccc(OC3CCN(Cc4ccccn4)CC3)cc2)C1 (stereo not given) | – | inactive: 6.08% |
| CC(c1ccc(F)cc1)n1c(-c2cccs2)n[nH]c1=S (stereo not given) | – | inactive: 1.46% |
| CCOc1ccc(N2CC(C(=O)Nc3ccccc3F)CC2=O)cc1 (stereo not given) | – | inactive: 45.6% |
| CCn1cc(C(=O)N2CCCC(CO)(Cc3ccccc3C)C2)cn1 (stereo not given) | – | inactive: 9.24% |
| CCNC(=S)N/N=C/c1ccc(OCC(=O)Nc2ccc(C)cc2)cc1 | inconclusive: 18.5 µM [inhibitor, single point] | – |
| COc1cccc(CN(C)C(=O)C2CCN(S(=O)(=O)c3ccc(C)cc3)CC2)c1OC | active: 11.7 µM | – |
| CN(C)Cc1c(C(=O)N/N=C/c2ccccc2OCc2c(F)cccc2Cl)nnn1-c1nonc1N | inconclusive: 1.47 µM [inhibitor, partial curve, poor fit] | – |
| Cc1ccc([N+](=O)[O-])cc1N/C=C/C(=O)c1ccco1 | – | inactive: 63.5% |
| CCOC(=O)c1csc(NC(C)=O)n1 | inconclusive: 0.329 µM [inhibitor, partial curve, poor fit] | – |
| C/C(=N\NC(=O)Cc1ccccc1)c1ccc(Cl)s1 | inconclusive: 10.4 µM [inhibitor, single point] | – |
| O=C(NCc1nc2ccccc2[nH]1)C1=C[C@@H](C2CCCCC2)C[C@@H](OCc2ccc(CO)cc2)O1 | inconclusive: 2.94 µM [inhibitor, full curve] | – |
| COCCNC(=O)c1cccc(C)c1[N+](=O)[O-] | inconclusive: 18.5 µM [inhibitor, single point] | – |
| CCCC(=O)N1CC(=O)Nc2ccc(C)cc2C1c1ccccc1 (stereo not given) | active: 7.38 µM | – |
| O=S(=O)(c1cccs1)N1CCC2(CC1)OCCN2S(=O)(=O)c1ccccc1 | inconclusive: 18.5 µM [inhibitor, partial curve, poor fit] | – |
| O=C(COC(=O)c1cccc(S(=O)(=O)Nc2ccc(F)cc2)c1)NCCN1C(=O)CSC1=O | inconclusive: 10.4 µM [inhibitor, partial curve] | – |
| CCn1c(C)c(C)c2cc(C(=O)NC3CCCCCC3)ccc21 | – | inactive: 24.6% |
| Cc1ccc(S(=O)(=O)Oc2ccccc2N2C(=O)C3CC=CCC3C2=O)cc1 (stereo not given) | inconclusive: 1.04 µM [inhibitor, partial curve, poor fit] | – |
